Assay results reported in the supplement of paper PMC9233669.
This sample is rich in variants without activity.

How the values were obtained:
biotinyl-Ile-oxazolone = test: self-aminoacylation, catalytic enhancement (BIO) (fold over background); higher = more active; k-Seq, kA / k0A0; sequences stand for … in GGGAAUGGAUCCACAUCUACGAAUUC…UUCACUGCAGACUUGACGAAGCUG
Outline: (§1)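 Mutagenized RNA pools with a 21-nt variable region (0.43 μM) reacted with each biotinyl-aminoacyl-oxazolone at 2–1250 μM. Reactions ran in 50 μL HEPES/NaCl/KCl/MgCl2/CaCl2 buffer with 5% acetonitrile, pH 6.9–7.0, for 90 minutes at room temperature. Streptavidin-captured RNA was quantified by triplicate qPCR and Illumina sequencing, and per-sequence fraction reacted was fit to a pseudo-first-order model with 1000 bootstraps. Catalytic enhancement is median kA divided by the uncatalyzed rate, the low-activity peak of a bimodal Gaussian fit.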

biotinyl-Phe-oxazolone = test: self-aminoacylation, catalytic enhancement (BFO) (fold over background); higher = more active; k-Seq, kA / k0A0; sequences stand for … in GGGAAUGGAUCCACAUCUACGAAUUC…UUCACUGCAGACUUGACGAAGCUG
Outline: as §1

biotinyl-Met-oxazolone = test: self-aminoacylation, catalytic enhancement (BMO) (fold over background); higher = more active; k-Seq, kA / k0A0; sequences stand for … in GGGAAUGGAUCCACAUCUACGAAUUC…UUCACUGCAGACUUGACGAAGCUG
Outline: as §1

biotinyl-Val-oxazolone = test: self-aminoacylation, catalytic enhancement (BVO) (fold over background); higher = more active; k-Seq, kA / k0A0; sequences stand for … in GGGAAUGGAUCCACAUCUACGAAUUC…UUCACUGCAGACUUGACGAAGCUG
Outline: as §1

biotinyl-Trp-oxazolone = test: self-aminoacylation, catalytic enhancement (BWO) (fold over background); higher = more active; k-Seq, kA / k0A0; sequences stand for … in GGGAAUGGAUCCACAUCUACGAAUUC…UUCACUGCAGACUUGACGAAGCUG
Outline: as §1

biotinyl-Leu-oxazolone = test: self-aminoacylation, catalytic enhancement (BLO) (fold over background); higher = more active; k-Seq, kA / k0A0; sequences stand for … in GGGAAUGGAUCCACAUCUACGAAUUC…UUCACUGCAGACUUGACGAAGCUG
Outline: as §1

Sequence | self-aminoacylation (biotinyl-Ile-oxazolone) | self-aminoacylation (biotinyl-Phe-oxazolone) | self-aminoacylation (biotinyl-Met-oxazolone) | self-aminoacylation (biotinyl-Val-oxazolone) | self-aminoacylation (biotinyl-Trp-oxazolone) | self-aminoacylation (biotinyl-Leu-oxazolone)
CUACUUCAAACAAUCGGGCUG [Fam1A.1 aminoacylation ribozyme variant] | 1.17 | 13.2 | 0.998 | 1.14 | 9.43 | 1.32
CUACUUCAAACAAUCGGUCGA [Fam1A.1 aminoacylation ribozyme variant] | 0.884 | 14.9 | 0.807 | 0.974 | 6.82 | 0.992
CUACUUCAAACAAUCGGUGCG [Fam1A.1 aminoacylation ribozyme variant] | 0.723 | 0.944 | 0.677 | 0.644 | 0.889 | 0.83
CUACUUCAAACAAUCGUUUUG [Fam1A.1 aminoacylation ribozyme variant] | 0.758 | 0.98 | 0.603 | 0.669 | 0.576 | 0.568
CUACUUCAAACAAUGGGUAUG [Fam1A.1 aminoacylation ribozyme variant] | 0.75 | 0.516 | 0.721 | 0.723 | 0.518 | 0.654
CUACUUCAAACAAUGGGUCUG [Fam1A.1 aminoacylation ribozyme variant] | 0.886 | 0.804 | 0.823 | 0.817 | 0.617 | 0.807
CUACUUCAAACAAUGGUUCUG [Fam1A.1 aminoacylation ribozyme variant] | 0.653 | 0.557 | 0.514 | 0.643 | 0.509 | 0.618
CUACUUCAAACAAUUGGUCUA [Fam1A.1 aminoacylation ribozyme variant] | 0.89 | 0.989 | 0.693 | 0.75 | 0.678 | 0.755
CUACUUCAAACAAUUGGUCUU [Fam1A.1 aminoacylation ribozyme variant] | 1.01 | 1.14 | 0.761 | 0.935 | 0.615 | 0.647
CUACUUCAAACACUCUGUCUG [Fam1A.1 aminoacylation ribozyme variant] | 0.797 | 0.709 | 0.608 | 0.724 | 0.678 | 0.547
CUACUUCAAACAUUCGGUCGG [Fam1A.1 aminoacylation ribozyme variant] | 1.54 | 0.761 | 1.66 | 1.41 | 1.04 | 1.47
CUACUUCAAACAUUCGGUCUA [Fam1A.1 aminoacylation ribozyme variant] | 1.03 | 0.783 | 0.882 | 1.02 | 0.89 | 0.766
CUACUUCAAACCAUCCGUCUG [Fam1A.1 aminoacylation ribozyme variant] | 0.891 | 0.573 | 0.891 | 1.14 | 0.802 | 0.721
CUACUUCAAACCAUCGGUAUG [Fam1A.1 aminoacylation ribozyme variant] | 0.874 | 0.676 | 0.736 | 0.743 | 0.5 | 0.832
CUACUUCAAACCAUCGGUCUU [Fam1A.1 aminoacylation ribozyme variant] | 1.25 | 1.03 | 1.14 | 1.08 | 0.927 | 0.838
CUACUUCAAACGAUAGGUCUG [Fam1A.1 aminoacylation ribozyme variant] | 0.593 | 0.577 | 0.807 | 0.685 | 0.623 | 0.537
CUACUUCAAACGAUCGGUCCG [Fam1A.1 aminoacylation ribozyme variant] | 0.8 | 0.404 | 0.988 | 0.743 | 0.861 | 1.08
CUACUUCAAACUAUAGGUCUG [Fam1A.1 aminoacylation ribozyme variant] | 0.727 | 0.939 | 0.604 | 0.745 | 0.592 | 0.601
CUACUUCAAACUAUCGGGCUG [Fam1A.1 aminoacylation ribozyme variant] | 1.33 | 0.831 | 1.35 | 1.47 | 1.15 | 1.43
CUACUUCAAACUAUCGGUCAG [Fam1A.1 aminoacylation ribozyme variant] | 0.742 | 0.824 | 0.704 | 0.801 | 0.542 | 0.63
CUACUUCAAACUAUCGUUCUG [Fam1A.1 aminoacylation ribozyme variant] | 0.629 | 0.696 | 0.508 | 0.674 | 0.494 | 0.613
CUACUUCAAAGAAUCGAUCUG [Fam1A.1 aminoacylation ribozyme variant] | 0.679 | 0.544 | 0.454 | 0.595 | 0.506 | 0.615
CUACUUCAAAUAAUCGUUCUG [Fam1A.1 aminoacylation ribozyme variant] | 0.686 | 1.71 | 0.688 | 0.694 | 0.97 | 0.62
CUACUUCAAAUAAUCUGUCUG [Fam1A.1 aminoacylation ribozyme variant] | 0.855 | 1.98 | 0.805 | 0.748 | 1.17 | 0.639
CUACUUCAACCAAUUGGUCUG [Fam1A.1 aminoacylation ribozyme variant] | 0.88 | 1.67 | 0.9 | 0.89 | 0.957 | 0.794
